The values that follow come from PMC12563811.

The target of the assay is T1, transcobalamin 1 (TCN1), in 293T cells (UniProt P20061).
T1 sequence: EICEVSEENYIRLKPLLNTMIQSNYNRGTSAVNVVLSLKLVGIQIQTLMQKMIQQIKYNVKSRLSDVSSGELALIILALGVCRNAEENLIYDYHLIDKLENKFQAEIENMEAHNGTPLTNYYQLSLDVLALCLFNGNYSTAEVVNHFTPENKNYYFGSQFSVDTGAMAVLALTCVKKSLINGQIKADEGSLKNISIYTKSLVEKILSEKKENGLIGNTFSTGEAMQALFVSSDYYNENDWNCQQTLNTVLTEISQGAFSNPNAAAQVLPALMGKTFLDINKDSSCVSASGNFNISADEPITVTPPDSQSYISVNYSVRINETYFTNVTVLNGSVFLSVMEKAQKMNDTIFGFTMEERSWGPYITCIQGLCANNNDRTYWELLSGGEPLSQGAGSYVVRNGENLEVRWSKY
Kind of assay: affinity purification with mass spectrometry; proteins precipitated with TCN1 from TCN1-overexpressing cells (HEK-293T by the legend of Figure 6B), silver staining and mass spectrometry; hits crossed with transcription factor prediction databases.

Results are given in words; binding and its absence hold for the method and conditions named. Binding seen in cells or lysates may run through a third protein. A yes stands for co-enrichment or nearness to the bait. Other partners may have been found.

B1: signal transducer and activator of transcription 4 (STAT4), in 293T cells (protein, UniProt Q14765 1-748)
chain: MSQWNQVQQLEIKFLEQVDQFYDDNFPMEIRHLLAQWIENQDWEAASNNETMATILLQNLLIQLDEQLGRVSKEKNLLLIHNLKRIRKVLQGKFHGNPMHVAVVISNCLREERRILAAANMPVQGPLEKSLQSSSVSERQRNVEHKVAAIKNSVQMTEQDTKYLEDLQDEFDYRYKTIQTMDQSDKNSAMVNQEVLTLQEMLNSLDFKRKEALSKMTQIIHETDLLMNTMLIEELQDWKRRQQIACIGGPLHNGLDQLQNCFTLLAESLFQLRRQLEKLEEQSTKMTYEGDPIPMQRTHMLERVTFLIYNLFKNSFVVERQPCMPTHPQRPLVLKTLIQFTVKLRLLIKLPELNYQVKVKASIDKNVSTLSNRRFVLCGTNVKAMSIEESSNGSLSVEFRHLQPKEMKSSAGGKGNEGCHMVTEELHSITFETQICLYGLTIDLETSSLPVVMISNVSQLPNAWASIIWYNVSTNDSQNLVFFNNPPPATLSQLLEVMSWQFSSYVGRGLNSDQLHMLAEKLTVQSSYSDGHLTWAKFCKEHLPGKSFTFWTWLEAILDLIKKHILPLWIDGYVMGFVSKEKERLLLKDKMPGTFLLRFSESHLGGITFTWVDHSESGEVRFHSVEPYNKGRLSALPFADILRDYKVIMAENIPENPLKYLYPDIPKDKAFGKHYSSQPCEVSRPTERGDKGYVPSVFIPISTIRSDSTEPHSPSDLLPMSPSVYAVLRENLSPTTIETAMKSPYSAE
Turning to B1, the binding result is listed as “binds”.
